# Test results taken from PubChem BioAssay AID2549 (National Center for Advancing Translational Sciences (NCATS), 2010).
# Chains of the proteins cited; added tags and fusions are not shown. Lines headed by an entry give the natural chain unless they say otherwise; changes in a name come on top.
# UniProt P46063: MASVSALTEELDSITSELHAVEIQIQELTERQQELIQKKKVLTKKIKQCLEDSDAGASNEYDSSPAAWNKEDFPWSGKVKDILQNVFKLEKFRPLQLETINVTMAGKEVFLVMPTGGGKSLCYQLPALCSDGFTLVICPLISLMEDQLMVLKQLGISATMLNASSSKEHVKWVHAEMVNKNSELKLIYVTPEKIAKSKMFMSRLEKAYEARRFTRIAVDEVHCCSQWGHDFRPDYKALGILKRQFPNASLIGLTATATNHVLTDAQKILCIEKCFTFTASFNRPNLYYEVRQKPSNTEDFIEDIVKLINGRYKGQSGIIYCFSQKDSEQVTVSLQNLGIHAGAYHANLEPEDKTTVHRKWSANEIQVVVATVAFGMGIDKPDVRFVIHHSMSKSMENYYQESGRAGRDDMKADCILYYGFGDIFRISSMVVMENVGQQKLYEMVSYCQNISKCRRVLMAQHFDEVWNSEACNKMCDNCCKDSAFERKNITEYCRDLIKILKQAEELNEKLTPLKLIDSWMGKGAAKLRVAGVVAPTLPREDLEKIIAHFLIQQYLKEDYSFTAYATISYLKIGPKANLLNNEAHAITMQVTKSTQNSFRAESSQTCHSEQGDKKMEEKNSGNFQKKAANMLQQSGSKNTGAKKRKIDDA
# In all, about 240,000 compounds went through this assay and about 1,300 (0.54%) were called active. The inconclusive results got no clear call from the source; some entries with a clear call stand among them for comparison. The call rests on the fitted dose curve; in most records, active means well fitted inhibition curve with a large enough effect; inconclusive means small, poorly fitted or top-dose-only effect; inactive means flat fitted curve, though single readings scatter. Potencies of inconclusive entries are doubtful fits and often do not repeat.
# Biological target: ATP-dependent DNA helicase Q1 (Homo sapiens) (UniProt P46063)
# Experiment: qHTS Assay for Inhibitors of RecQ-Like Dna Helicase 1 (RECQ1); further: nearly all actives have a fitted effect of over 30% in size;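 on activity, negative = inhibition: plate controls were vehicle for no effect and no enzyme for full effect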
# Settings: RECQ1 DNA unwinding, red fluorescence kinetic read; activity, negative = inhibition: at 57.3 µM (top of the series); series mostly up to 57.3 µM
# In short: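 RECQ1T1 50 nM; forked duplex (20 bp + 30-nt ss tails) 200 nM, ATP 2 mM final; pH 8.0, 2 mM MgCl2, 2.5 ug/ml poly(dI-dC); 15 min compound preincubation; discontinuous kinetic read over 2 h at RT.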
# Potency means the concentration at half of the fitted maximal effect.
Compound,"activity, negative = inhibition",Potency,outcome
CC(NC(=O)C1CCCN1C(=O)CN)C(=O)O (centres undefined),inactive: -7.86%,–,–
O=C(O)c1ccc2nc(-c3ccccc3)c(-c3ccccc3)nc2c1,–,inactive,–
N#CCCn1c(=O)c(-c2ccc(Cl)cc2)nc2cnc(OCc3ccccc3)nc21,inactive: -2.38%,–,–
CN(C)c1ccc(-c2nc(NC3CCNCC3)c3ccccc3n2)cc1,–,"inconclusive: 39.8 µM [inhibitor, single point]",–
Cc1cccc(C(=O)N2CCC(=O)N([C@H](COCc3cccc(C(F)(F)F)c3)Cc3ccccc3)CC2)c1,–,"inconclusive: 25.1 µM [inhibitor, single point]",–
CC(C)C(C(=O)O)N1C(=O)/C(=C/C=C/c2ccco2)SC1=S (centres undefined),–,"inconclusive: 31.6 µM [inhibitor, single point]",–
CCO/C=C1/C(=O)N(Cc2ccccc2)C(=O)c2ccccc21,–,"inconclusive: 7.08 µM [inhibitor, full curve]",–
C/C(=N/NC(=O)Cc1cccn1C)c1ccccc1,–,"inconclusive: 35.5 µM [inhibitor, single point]",–
O=C(O)C1CC(C2CCCCN2)CN2CCCCC12 (centres undefined),inactive: -2.31%,–,–
Cc1cc(C(=O)CSc2nnc(-c3ccccc3F)o2)c(C)n1Cc1cccs1,–,"inconclusive: 39.8 µM [inhibitor, single point]",–
CCOC(=O)c1c(NC(=O)c2ccccc2N(C)S(=O)(=O)c2ccccc2)sc2c1CCCC2,inactive: -9.53%,–,–
CCC(C)[C@H]1CNC(=S)N1CCc1cc(C(F)(F)F)cc(C(F)(F)F)c1 (some centres undefined),–,"inconclusive: 31.6 µM [inhibitor, single point]",–
CC(=C\c1ccccc1)/C=C1/SC(=S)N(C(C(=O)O)C(C)C)C1=O (centres undefined),inactive: -13.9%,–,–
Cc1ccc(SCC(=O)Nc2cccc(C)c2)cc1,–,active: 25.1 µM,–
COCCn1c(N)c(C(=O)NCc2cccs2)c2nc3ccccc3nc21,–,"inconclusive: 39.8 µM [inhibitor, single point]",–
Cc1ccc(OCc2n[nH]c(=S)n2-c2ccccc2)cc1C,–,"inconclusive: 3.98 µM [inhibitor, full curve]",–
CCOP(=O)(OCC)/C(C#N)=C/c1ccc([N+](=O)[O-])cc1,–,–,inactive
COc1ccc(N=Nc2nc(-c3ccccc3)c(-c3ccccc3)[nH]2)cc1,inactive: -22.2%,–,–
O=C(O)C1=CC(=C(c2ccc(O)c(C(=O)O)c2)c2ccc(O)c(C(=O)O)c2)C=CC1=O,–,active: 0.282 µM,–
CC1CCC(NC(=S)NCCN(C)C)CC1 (centres undefined),–,"inconclusive: 6.31 µM [inhibitor, single point]",–
CCc1nc(Nc2ccc(N3CCN(C(C)=O)CC3)cc2)c2oc3ccccc3c2n1,–,"inconclusive: 39.8 µM [inhibitor, single point]",–
CCCCCCCCCCCCCCCC(=O)N[C@@H](COP(=O)(O)O)C(=O)O,–,"inconclusive: 39.8 µM [inhibitor, single point]",–
Cc1ccc(S(=O)(=O)N2CCC(=O)N2)cc1,–,"inconclusive: 0.112 µM [inhibitor, partial curve, poor fit]",–
Nc1cccn2c(-c3ccc(Cl)cc3)cnc12,inactive: -6.27%,–,–
CCOC(=O)c1sc(-c2ccc(Br)cc2)cc1N,–,active: 31.6 µM,–

Compound,"activity, negative = inhibition",Potency,outcome
COc1ccc(N2CC(NC(=O)Nc3ccccc3)CC2=O)cc1 (centres undefined),inactive: -2.05%,–,–
COc1ccc(-c2nnc(Nc3nc4c(OC)cccc4s3)o2)cc1,inactive: -2.69%,–,–
O=C(CSCc1ccc(Cl)cc1)Nc1cccc(C(=O)Nc2ccccc2C(=O)O)c1,–,"inconclusive: 3.98 µM [inhibitor, single point]",–
Cc1ccccc1CC1(CO)CCCN(Cc2ccc3c(c2)OCCO3)C1 (centres undefined),–,"inconclusive: 0.158 µM [inhibitor, partial curve, poor fit]",–
OC(COc1ccc(C2C=CCC2)cc1)CN1CCCCC1 (centres undefined),–,"inconclusive: 39.8 µM [inhibitor, single point]",–
COc1cccc(N2CCN(c3c4c(nc5ncnn35)CCC4)CC2)c1,–,"inconclusive: 14.1 µM [inhibitor, partial curve]",–
C/C=C/C=C/C=O,inactive: 3.54%,–,–
CC(C)OCCCNc1nc2c([nH]1)c(=O)n(C)c(=O)n2C,–,"inconclusive: 7.08 µM [inhibitor, single point]",–
CN(C)c1ccc(NC(=O)CSCc2nc3c(nnn3Cc3ccc(F)cc3)c(=O)[nH]2)cc1,inactive: -10.4%,–,–
O=C(CSc1nnc(-c2ccco2)c(-c2ccco2)n1)Nc1ccccc1,–,active: 10 µM,–
C=C/C(C)=C/[C@@]1(C)SC(=O)C(C)=C1O,–,active: 8.91 µM,–
COc1ccccc1N1C(=O)[C@@H]2[C@H](C1=O)[C@H](C(=O)c1ccc(OC(C)=O)cc1)N1N=CC=C[C@@H]21,inactive: -0.428%,–,–
COc1ccccc1NS(=O)(=O)c1cccc(C(=O)N/N=C/c2ccc(C)o2)c1,–,"inconclusive: 39.8 µM [inhibitor, partial curve]",–
Cc1ccc(OCC(=O)Nc2ccc(N3CCN(C(=O)c4ccco4)CC3)cc2)cc1C,inactive: -9.93%,–,–
CN(C)S(=O)(=O)c1cccc(NC(=S)Nc2cccc3cnccc23)c1,–,–,inactive
CC(C)c1nc(CNC(=O)CC2C(=O)NCCN2Cc2ccoc2)cs1 (centres undefined),–,"inconclusive: 0.158 µM [inhibitor, full curve, poor fit]",–
Cc1cccc(N(C(=O)c2ccc(Cl)cc2)C2CS(=O)(=O)CC2OC(=O)c2ccc(Cl)cc2)c1 (centres undefined),–,"inconclusive: 31.6 µM [inhibitor, single point]",–
O=C(Nc1nnc(-c2cccs2)s1)C1CC1,–,"inconclusive: 8.91 µM [inhibitor, single point]",–
Cc1nn(-c2ccccc2)c(Cl)c1/C=N/Nc1ccc(S(=O)(=O)Nc2ccccc2C(=O)O)cc1[N+](=O)[O-],–,"inconclusive: 28.2 µM [inhibitor, single point]",–
CC(C)CN(CC(C)C)c1nc(N)c(C#N)c(CC#N)c1C#N,–,active: 28.2 µM,–
COc1cc(/C=C2\CC/C(=C\c3cc(OC)c(OC)c(OC)c3)C2=O)cc(OC)c1OC,–,–,inactive
Cc1c(O)cc2c(c1O)C(=O)CC(c1ccc(O)cc1)O2 (centres undefined),–,active: 25.1 µM,–
CCOC(C)(C)C,inactive: 10.7%,–,–
CC1=NN2C(=N)/C(=C\c3cc(C)n(-c4ccc(C)cc4)c3C)C(=O)N=C2S1,–,"inconclusive: 39.8 µM [inhibitor, partial curve]",–
CO[C@@]12[C@@H](COC(N)=O)C3=C(C(=O)C(C)=C(N)C3=O)N1C[C@@H]1N[C@@H]12,–,–,inactive

# 3 of the compounds above, with bars between the fields.
Compound | activity, negative = inhibition | Potency | outcome
COc1cc(/C=C2\CC/C(=C\c3cc(OC)c(OC)c(OC)c3)C2=O)cc(OC)c1OC | – | – | inactive
Cc1c(O)cc2c(c1O)C(=O)CC(c1ccc(O)cc1)O2 (centres undefined) | – | active: 25.1 µM | –
CCOC(C)(C)C | inactive: 10.7% | – | –

# (further entries)

Compound,"activity, negative = inhibition",Potency,outcome
O=C(NNc1ccc(C2CCCCC2)cc1)C(O)(c1ccccc1)c1cccs1 (centres undefined),–,"inconclusive: 3.55 µM [inhibitor, partial curve]",–
CCOC(=O)CN(C(=O)CNC(=O)c1cccs1)C(C(=O)NC1CCCC1)c1cccnc1 (centres undefined),–,"inconclusive: 0.355 µM [inhibitor, partial curve, poor fit]",–
COc1ccc(S(=O)(=O)N2CCOCC2)cc1NC(=O)COc1ncnc2ccccc12,–,"inconclusive: 39.8 µM [inhibitor, single point]",–
Cc1ccc(/C=C/C(=O)NCc2ccccn2)o1,–,"inconclusive: 39.8 µM [inhibitor, single point]",–
O=C(Nc1ccccc1)c1ccccc1NS(=O)(=O)c1ccc(Cl)s1,inactive: 9.64%,–,–
COC1=C(Nc2ccccc2OC)C(=O)c2ccccc2C1=O,inactive: 8.67%,–,–
COC(=O)C1=C(C)N(Cc2ccccc2)C(=O)N[C@H]1c1ccco1,–,–,inactive [at 11.5 µM]
CC1=C(C#N)c2nc(N)c(C#N)c(C)c2/C1=C\c1ccc(OCC(=O)O)c(Cl)c1,–,"inconclusive: 39.8 µM [inhibitor, single point]",–
COCCN1CSC(=S)N(Cc2ccco2)C1,inactive: -4.32%,–,–
C/C=C\C=C/C(=O)Nc1cccc(C2=NOC3(C2)C[C@@H](C(N)=O)N(C(=O)/C=C/C=C\C)C3)c1 (some centres undefined),–,active: 22.4 µM,–
NS(=O)(=O)c1ccc(NC(=O)Cn2ncc3c2-c2ccccc2OC3)cc1,inactive: 4.94%,–,–
CCOC(=O)c1c(O)c2ccccc2n(-c2ccccc2)c1=O,–,"inconclusive: 3.55 µM [inhibitor, partial curve]",–
COc1cccc(-n2c(SCc3cc(=O)oc4cc(O)c(O)cc34)nc3ccccc3c2=O)c1,–,active: 25.1 µM,–
COc1ccc(S(=O)(=O)NCCSCc2ccco2)cc1,–,"inconclusive: 35.5 µM [inhibitor, single point]",–
ICCc1ccccc1,inactive: 1.01%,–,–
O=C(c1cc(O)c(O)c([N+](=O)[O-])c1)c1ccccc1F,–,active: 2.24 µM,–
CCn1c(SCC(=O)OC)nc2sc3c(c2c1=O)CCC3,–,"inconclusive: 28.2 µM [inhibitor, single point]",–
O=C(Nc1ccccc1)Nc1ccc(S(=O)(=O)N2CCCCC2)cc1,–,"inconclusive: 1.12 µM [inhibitor, full curve]",–
Cc1sc2c(c1C)C(O)=C(C(=O)Nc1ccccc1)S(=O)(=O)N2C,–,"inconclusive: 39.8 µM [inhibitor, single point]",–
COC(=O)[C@H](CC(C)C)NC(=O)c1ccc(NC[C@@H](N)CS)cc1-c1cccc2ccccc12,inactive: -15.9%,–,–
CC1=NNC(=O)/C1=C\c1cn(-c2ccccc2)nc1-c1cccs1,–,"inconclusive: 4.47 µM [inhibitor, full curve]",–
COc1cc(/C=C2\SC(N)=NC2=O)ccc1OCC(=O)Nc1ccc(C)cc1,–,"inconclusive: 35.5 µM [inhibitor, single point]",–
CN(C)S(=O)(=O)c1ccc(Cl)c(NC(=O)CSc2nc3c(cc2C#N)C(=O)CC(C)(C)C3)c1,–,"inconclusive: 39.8 µM [inhibitor, single point]",–
CCOc1ccc(NC(=O)c2ccccc2NC(=O)CN(C)CC(=O)Nc2ccc(C)cc2)cc1,–,"inconclusive: 25.1 µM [inhibitor, partial curve, poor fit]",–
